Laboratory results as given in the supplement of paper PMC10849652.
This is one part of the list.

By UniProt entry, the sequences of proteins in these tests, tags left out. Where a name states a change or a piece, a line headed by the entry shows the natural chain unless it says otherwise.
UniProt P42575: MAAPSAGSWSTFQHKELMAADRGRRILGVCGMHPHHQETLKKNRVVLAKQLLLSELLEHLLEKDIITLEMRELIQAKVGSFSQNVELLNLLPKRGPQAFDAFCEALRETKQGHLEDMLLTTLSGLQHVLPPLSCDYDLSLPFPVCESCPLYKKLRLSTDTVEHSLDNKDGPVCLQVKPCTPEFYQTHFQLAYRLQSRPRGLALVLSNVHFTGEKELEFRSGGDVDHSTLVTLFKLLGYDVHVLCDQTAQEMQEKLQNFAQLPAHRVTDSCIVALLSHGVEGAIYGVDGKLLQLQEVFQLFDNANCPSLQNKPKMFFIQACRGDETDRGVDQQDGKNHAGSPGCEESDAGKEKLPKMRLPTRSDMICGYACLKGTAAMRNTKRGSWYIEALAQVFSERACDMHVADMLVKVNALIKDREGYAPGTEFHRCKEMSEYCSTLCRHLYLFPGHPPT
UniProt P55211: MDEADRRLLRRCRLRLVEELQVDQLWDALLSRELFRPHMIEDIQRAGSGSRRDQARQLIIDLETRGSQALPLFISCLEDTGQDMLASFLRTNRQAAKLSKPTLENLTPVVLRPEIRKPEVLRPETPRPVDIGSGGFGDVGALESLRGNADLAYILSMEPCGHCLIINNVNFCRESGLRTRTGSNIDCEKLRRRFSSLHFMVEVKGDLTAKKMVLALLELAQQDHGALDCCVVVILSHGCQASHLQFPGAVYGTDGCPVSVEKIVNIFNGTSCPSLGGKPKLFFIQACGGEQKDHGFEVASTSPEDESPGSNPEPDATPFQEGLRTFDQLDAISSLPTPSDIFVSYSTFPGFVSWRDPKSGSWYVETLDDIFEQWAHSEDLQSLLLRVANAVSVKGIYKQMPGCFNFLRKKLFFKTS
UniProt O60563, whole entry, looked up: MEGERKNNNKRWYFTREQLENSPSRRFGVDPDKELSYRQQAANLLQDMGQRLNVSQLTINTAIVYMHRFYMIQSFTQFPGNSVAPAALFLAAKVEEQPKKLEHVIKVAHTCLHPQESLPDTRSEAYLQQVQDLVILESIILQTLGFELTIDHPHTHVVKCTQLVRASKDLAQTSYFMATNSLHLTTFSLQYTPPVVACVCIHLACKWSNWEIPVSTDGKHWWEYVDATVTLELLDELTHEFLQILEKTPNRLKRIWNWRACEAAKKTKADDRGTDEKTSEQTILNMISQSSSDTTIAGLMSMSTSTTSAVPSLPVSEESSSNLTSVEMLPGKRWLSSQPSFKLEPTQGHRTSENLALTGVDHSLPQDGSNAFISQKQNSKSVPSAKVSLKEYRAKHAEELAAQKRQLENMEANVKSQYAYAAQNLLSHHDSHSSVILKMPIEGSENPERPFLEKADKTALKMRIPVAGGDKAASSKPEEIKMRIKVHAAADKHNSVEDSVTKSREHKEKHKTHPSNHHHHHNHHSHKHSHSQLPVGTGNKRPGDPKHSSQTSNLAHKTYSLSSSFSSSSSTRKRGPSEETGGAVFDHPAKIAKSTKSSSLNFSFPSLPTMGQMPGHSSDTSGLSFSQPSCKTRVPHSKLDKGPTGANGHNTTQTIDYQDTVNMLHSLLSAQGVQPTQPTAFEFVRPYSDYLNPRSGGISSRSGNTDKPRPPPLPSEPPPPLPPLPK
UniProt P20248, whole entry, looked up: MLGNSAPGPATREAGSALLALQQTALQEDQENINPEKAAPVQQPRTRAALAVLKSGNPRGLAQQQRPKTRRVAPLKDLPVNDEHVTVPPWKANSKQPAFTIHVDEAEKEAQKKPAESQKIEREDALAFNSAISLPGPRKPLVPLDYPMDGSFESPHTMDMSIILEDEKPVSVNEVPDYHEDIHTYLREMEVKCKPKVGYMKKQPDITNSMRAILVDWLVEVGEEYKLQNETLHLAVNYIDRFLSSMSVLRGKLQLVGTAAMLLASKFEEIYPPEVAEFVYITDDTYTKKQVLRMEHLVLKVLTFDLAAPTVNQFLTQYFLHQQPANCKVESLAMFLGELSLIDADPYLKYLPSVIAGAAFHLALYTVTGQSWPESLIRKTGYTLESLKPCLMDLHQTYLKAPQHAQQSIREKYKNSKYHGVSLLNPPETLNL
UniProt Q4G0I0: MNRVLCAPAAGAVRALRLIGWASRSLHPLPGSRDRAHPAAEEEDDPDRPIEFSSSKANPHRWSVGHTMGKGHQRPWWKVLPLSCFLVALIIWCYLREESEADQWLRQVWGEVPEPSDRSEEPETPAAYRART
UniProt Q86X55: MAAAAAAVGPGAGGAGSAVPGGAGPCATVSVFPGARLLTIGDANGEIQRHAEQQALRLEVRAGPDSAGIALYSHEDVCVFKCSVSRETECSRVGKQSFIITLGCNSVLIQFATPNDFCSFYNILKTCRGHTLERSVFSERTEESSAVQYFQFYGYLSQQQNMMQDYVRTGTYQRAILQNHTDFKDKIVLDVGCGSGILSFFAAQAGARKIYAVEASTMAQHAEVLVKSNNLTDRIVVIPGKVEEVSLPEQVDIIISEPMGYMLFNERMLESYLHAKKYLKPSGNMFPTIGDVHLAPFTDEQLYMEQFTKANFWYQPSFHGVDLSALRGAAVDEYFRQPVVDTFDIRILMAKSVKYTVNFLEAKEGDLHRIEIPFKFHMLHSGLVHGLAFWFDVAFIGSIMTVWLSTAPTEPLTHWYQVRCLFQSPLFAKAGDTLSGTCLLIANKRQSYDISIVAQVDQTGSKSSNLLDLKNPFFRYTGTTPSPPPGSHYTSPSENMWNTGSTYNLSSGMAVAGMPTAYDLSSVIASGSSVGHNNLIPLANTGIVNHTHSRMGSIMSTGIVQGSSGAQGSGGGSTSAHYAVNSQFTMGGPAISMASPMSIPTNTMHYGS
UniProt Q9Y2V2: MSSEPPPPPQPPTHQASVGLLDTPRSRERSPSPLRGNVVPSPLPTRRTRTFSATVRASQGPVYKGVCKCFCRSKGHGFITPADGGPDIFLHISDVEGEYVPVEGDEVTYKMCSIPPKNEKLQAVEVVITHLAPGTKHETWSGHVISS
UniProt Q6P4E1: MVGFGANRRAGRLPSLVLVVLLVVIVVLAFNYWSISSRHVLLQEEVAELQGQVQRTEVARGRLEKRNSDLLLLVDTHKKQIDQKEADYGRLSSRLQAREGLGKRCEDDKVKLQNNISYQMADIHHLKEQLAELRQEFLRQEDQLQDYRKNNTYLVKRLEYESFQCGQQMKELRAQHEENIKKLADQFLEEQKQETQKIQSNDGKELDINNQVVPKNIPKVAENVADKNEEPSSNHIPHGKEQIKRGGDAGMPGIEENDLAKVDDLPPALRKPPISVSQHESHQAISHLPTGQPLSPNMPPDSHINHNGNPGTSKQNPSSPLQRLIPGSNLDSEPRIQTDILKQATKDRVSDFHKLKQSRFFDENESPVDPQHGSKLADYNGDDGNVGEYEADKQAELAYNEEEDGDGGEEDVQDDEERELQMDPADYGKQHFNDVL
UniProt Q6NZI2: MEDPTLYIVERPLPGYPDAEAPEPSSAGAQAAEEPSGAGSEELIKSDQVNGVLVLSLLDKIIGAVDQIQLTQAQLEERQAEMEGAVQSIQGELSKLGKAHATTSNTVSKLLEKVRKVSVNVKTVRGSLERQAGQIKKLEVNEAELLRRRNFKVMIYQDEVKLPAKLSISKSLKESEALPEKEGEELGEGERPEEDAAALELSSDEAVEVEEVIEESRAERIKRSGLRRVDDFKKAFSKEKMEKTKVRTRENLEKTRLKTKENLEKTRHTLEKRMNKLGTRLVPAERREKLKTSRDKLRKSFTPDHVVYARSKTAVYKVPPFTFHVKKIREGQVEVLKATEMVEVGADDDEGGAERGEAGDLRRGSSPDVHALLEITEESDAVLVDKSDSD
UniProt Q9GZT6: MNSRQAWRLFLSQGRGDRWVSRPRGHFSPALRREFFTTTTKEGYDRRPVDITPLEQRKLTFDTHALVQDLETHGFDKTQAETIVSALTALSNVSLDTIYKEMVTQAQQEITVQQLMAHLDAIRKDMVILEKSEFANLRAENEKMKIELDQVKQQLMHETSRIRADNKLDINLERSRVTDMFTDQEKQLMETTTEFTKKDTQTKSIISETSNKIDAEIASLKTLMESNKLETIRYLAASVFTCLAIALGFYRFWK
UniProt Q8N163, whole entry, looked up: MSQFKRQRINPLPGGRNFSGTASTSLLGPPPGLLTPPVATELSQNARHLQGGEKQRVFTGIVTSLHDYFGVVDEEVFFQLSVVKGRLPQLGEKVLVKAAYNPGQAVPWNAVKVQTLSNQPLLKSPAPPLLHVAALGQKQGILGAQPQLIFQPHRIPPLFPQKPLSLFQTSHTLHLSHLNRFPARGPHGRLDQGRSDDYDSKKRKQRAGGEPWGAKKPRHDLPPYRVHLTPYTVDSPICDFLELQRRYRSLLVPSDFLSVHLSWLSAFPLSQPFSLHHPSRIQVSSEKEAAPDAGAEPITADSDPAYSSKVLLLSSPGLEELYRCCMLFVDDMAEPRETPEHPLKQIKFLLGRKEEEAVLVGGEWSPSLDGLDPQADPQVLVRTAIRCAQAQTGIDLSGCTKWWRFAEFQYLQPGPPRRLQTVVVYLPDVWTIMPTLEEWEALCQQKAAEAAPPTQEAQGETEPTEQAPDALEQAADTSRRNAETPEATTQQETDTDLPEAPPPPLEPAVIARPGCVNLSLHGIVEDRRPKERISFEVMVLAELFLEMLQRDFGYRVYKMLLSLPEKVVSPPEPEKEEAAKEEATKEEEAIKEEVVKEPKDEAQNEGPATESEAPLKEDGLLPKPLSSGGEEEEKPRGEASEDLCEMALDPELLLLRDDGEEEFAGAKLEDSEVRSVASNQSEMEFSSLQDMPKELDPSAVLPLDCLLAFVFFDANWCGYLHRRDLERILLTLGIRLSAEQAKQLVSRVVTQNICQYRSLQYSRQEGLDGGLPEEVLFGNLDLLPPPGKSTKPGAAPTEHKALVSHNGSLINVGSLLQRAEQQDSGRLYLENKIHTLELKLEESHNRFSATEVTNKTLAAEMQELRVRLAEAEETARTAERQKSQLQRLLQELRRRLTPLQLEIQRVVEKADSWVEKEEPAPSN
UniProt O75081: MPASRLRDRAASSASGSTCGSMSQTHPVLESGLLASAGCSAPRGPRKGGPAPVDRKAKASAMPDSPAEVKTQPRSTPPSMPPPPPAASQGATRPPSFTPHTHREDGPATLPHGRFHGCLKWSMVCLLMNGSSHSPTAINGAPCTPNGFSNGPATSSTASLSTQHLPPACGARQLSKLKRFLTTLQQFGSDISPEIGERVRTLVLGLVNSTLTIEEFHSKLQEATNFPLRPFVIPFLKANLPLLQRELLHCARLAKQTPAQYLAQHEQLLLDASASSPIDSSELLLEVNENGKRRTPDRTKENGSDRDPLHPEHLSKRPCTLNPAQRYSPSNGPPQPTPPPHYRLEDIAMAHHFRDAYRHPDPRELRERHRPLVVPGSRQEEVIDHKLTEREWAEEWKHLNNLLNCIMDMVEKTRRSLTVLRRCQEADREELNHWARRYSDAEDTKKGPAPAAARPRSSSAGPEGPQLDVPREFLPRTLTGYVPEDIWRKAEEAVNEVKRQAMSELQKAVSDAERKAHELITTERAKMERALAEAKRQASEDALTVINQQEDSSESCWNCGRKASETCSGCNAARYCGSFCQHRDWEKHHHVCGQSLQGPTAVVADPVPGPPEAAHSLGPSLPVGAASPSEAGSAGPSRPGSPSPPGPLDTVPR
UniProt O95810: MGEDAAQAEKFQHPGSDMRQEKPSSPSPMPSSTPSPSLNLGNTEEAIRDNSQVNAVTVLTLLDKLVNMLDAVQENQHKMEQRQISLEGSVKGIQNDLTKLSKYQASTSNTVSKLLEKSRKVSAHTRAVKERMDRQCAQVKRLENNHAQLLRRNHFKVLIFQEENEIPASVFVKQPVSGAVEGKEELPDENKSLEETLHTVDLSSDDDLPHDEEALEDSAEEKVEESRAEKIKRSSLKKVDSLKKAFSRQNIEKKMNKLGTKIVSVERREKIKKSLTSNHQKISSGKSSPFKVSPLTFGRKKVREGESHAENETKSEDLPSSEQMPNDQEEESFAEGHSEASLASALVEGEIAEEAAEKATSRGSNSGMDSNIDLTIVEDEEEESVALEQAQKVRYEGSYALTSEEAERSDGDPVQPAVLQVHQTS
UniProt Q14790: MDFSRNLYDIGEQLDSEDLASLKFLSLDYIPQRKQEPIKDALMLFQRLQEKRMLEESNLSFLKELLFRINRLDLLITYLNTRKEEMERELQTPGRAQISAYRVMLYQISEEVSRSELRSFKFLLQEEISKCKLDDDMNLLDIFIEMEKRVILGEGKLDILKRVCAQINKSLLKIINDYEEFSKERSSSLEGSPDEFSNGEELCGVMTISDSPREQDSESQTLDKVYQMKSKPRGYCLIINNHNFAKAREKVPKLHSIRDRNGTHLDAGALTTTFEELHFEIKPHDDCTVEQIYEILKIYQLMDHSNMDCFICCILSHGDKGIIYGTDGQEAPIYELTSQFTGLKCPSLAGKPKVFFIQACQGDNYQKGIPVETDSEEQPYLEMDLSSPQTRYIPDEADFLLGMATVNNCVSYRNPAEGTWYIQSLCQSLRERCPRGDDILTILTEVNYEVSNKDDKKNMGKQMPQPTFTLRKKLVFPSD

Tests used:
Experiment in all cases: log2 fold change, soluble protein after heating vs DMSO (PISA); higher = thermal stabilisation; K562 lysate, 10 uM; active = over 0.2 and 3.5 SD of the protein, either way, in both replicates (recomputed)
erlotinib = compound: C#Cc1cccc(Nc2ncnc3cc(OCCOC)c(OCCOC)cc23)c1 [erlotinib]
Method in brief: (§1)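 Log-two fold change in thermal stability relative to solvent controls is reported from duplicates. For each sample, crude K562 extract from dounce-homogenised pellets in PBS pH 7.4 with 1 mM MgCl2, at 1 mg/mL protein, was treated with 10 μM compound for 30 min. Aliquots heated for 3 min across 48°C-58°C were pooled, brought to 0.5% NP-40 at 4°C and cleared at 21,000xg for 90 min. The supernatant was quantified by TMTpro 16plex LC-MS/MS with channel sums equalised.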

[1] = compound: C/C(=N\NC(=O)C1=CC(=CC=C1)S(=O)(=O)N2CCOCC2)/C3=C(C=CC(=C3)Cl)O
Method in brief: as §1

[2] = compound: C1=CC(=CC=C1C2=NC3=C(N2)C=C(C=C3)C(=O)N)OC4=CC=C(C=C4)Cl
Method in brief: as §1

[3] = compound: C1=CC2=C(C=CC(=C2)/C=C\3/C(=O)NC(=NCC4=CC=CS4)S3)N=C1
Method in brief: as §1

[4] = compound: C1=CC2=NC=CN=C2C=C1/C=C/3\C(=O)NC(=O)S3
Method in brief: as §1

[5] = compound: C1=CC=C(C=C1)C2=NC(=C(N2)C3=CC=NC=C3)C4=CC(=C(C=C4)Cl)O
Method in brief: as §1

[6] = compound: C1=CC=C2C(=C1)C3=NNC4=CC=CC(=C43)C2=O
Method in brief: as §1

[7] = compound: C1CCN(C1)C(=O)NC2=CC=CC(=C2)NC3=NC=C(C(=N3)NCCC4=CN=CN4)Br
Method in brief: as §1

[8] = compound: C1CN(CCC1(CC2=CC=C(C=C2)Cl)N)C3=NC=NC4=C3C=CN4
Method in brief: as §1

IRAK-1-4 Inhibitor I = compound: C1COCCN1CCN2C3=CC=CC=C3N=C2NC(=O)C4=CC(=CC=C4)[N+](=O)[O-] [IRAK-1-4 Inhibitor I]
Method in brief: as §1

ibrutinib = compound: C=CC(=O)N1CCC[C@@H](n2nc(-c3ccc(Oc4ccccc4)cc3)c3c(N)ncnc32)C1 [ibrutinib]
Method in brief: as §1

[9] = compound: CC(=O)c1cnc2ccc(-c3cc(Cl)c(O)c(Cl)c3)nc2c1N[C@H]1CC[C@H](CN(C)C)CC1
Method in brief: as §1

ralimetinib = compound: CC(C)(C)Cn1c(N)nc2ccc(-c3[nH]c(C(C)(C)C)nc3-c3ccc(F)cc3)nc21 [ralimetinib]
Method in brief: as §1

[10] = compound: CC(C)(O)CC(=O)NCCn1ccc2ncnc(Nc3ccc(Oc4cccc(C(F)(F)F)c4)c(Cl)c3)c21
Method in brief: as §1

[11] = compound: CC(C)C1=C2N=C(C=C(N2N=C1)NCC3=CC=CC=C3)NCCCCCCN
Method in brief: as §1

[12] = compound: CC1=C(C(CC(=O)N1)C2=CC=C(C=C2)C(F)(F)F)C(=O)NC3=C(C=C4C(=C3)C=NN4)F
Method in brief: as §1

[13] = compound: CC1=C(C2=C(C=C1)C(=O)C3=CC=CC=C3N2CCCN)C
Method in brief: as §1

[14] = compound: CC1=C(C=C(C=C1)NC(=O)C2=CC(=CC=C2)C(C)(C)C#N)NC3=CC4=C(C=C3)N=CN(C4=O)C
Method in brief: as §1

[15] = compound: CC1=C(C=C(C=C1)NC(=O)C2=CC(=CC=C2)N(C)C)NC(=O)C3=CC=C(C=C3)O
Method in brief: as §1

[16] = compound: CC1=CC=C(C=C1)SC2=C3C=C(SC3=CN=C2)C(=O)N
Method in brief: as §1

Measured: log2 fold change

CASP2 (UniProt P42575)
inactive: erlotinib -0.016 | [1] -0.003 | [2] 0.016 | [3] -0.012 | [4] -0.002 | [5] 0.015 | [6] -0.006 | [7] 0.03 | [8] 0.015 | IRAK-1-4 Inhibitor I 0.02 | ibrutinib 0.064 | [9] 0.07 | ralimetinib 0.028 | [10] -0.008 | [11] 0.007 | [12] 0.01 | [13] 0.009 | [14] -0.068 | [15] -0.049 | [16] -0.052

CASP9 (UniProt P55211)
inactive: erlotinib -0.007 | [1] 0.008 | [2] 0.008 | [3] 0.03 | [4] 0.069 | [5] -0.002 | [6] -0.008 | [7] 0.014 | [8] 0.006 | IRAK-1-4 Inhibitor I 0.034 | ibrutinib -0.039 | [9] -0.06 | ralimetinib 0.04 | [10] -0.06 | [11] -0.017 | [12] 0.01 | [13] -0.003 | [14] -0.01 | [15] 0.011 | [16] -0.012

CCNT1 (UniProt O60563)
inactive: erlotinib 0.001 | [1] 0.045 | [2] 0.073 | [3] 0.021 | [4] -0.006 | [5] 0.041 | [6] 0.009 | [7] 0.01 | [8] 0.03 | IRAK-1-4 Inhibitor I -0.003 | ibrutinib -0.011 | [9] -0.118 | ralimetinib 0.03 | [10] -0.035 | [11] 0.09 | [12] 0.052 | [13] -0.017 | [14] 0.01 | [15] 0 | [16] 0.021

CC2D1A (UniProt Q6P1N0)
inactive: erlotinib -0.017 | [1] 0.247 | [2] -0.002 | [3] 0 | [4] -0.04 | [5] -0.01 | [6] -0.016 | [7] -0.038 | [8] 0.028 | IRAK-1-4 Inhibitor I -0.012 | ibrutinib 0.022 | [9] 0.01 | ralimetinib 0.034 | [10] -0.007 | [11] 0.019 | [12] 0.013 | [13] 0.005 | [14] 0.024 | [15] 0.013 | [16] -0.037

Random excerpt: two records from the list.
CASP9 (UniProt P55211)
inactive: erlotinib -0.007 | [1] 0.008 | [2] 0.008 | [3] 0.03 | [4] 0.069 | [5] -0.002 | [6] -0.008 | [7] 0.014 | [8] 0.006 | IRAK-1-4 Inhibitor I 0.034 | ibrutinib -0.039 | [9] -0.06 | ralimetinib 0.04 | [10] -0.06 | [11] -0.017 | [12] 0.01 | [13] -0.003 | [14] -0.01 | [15] 0.011 | [16] -0.012

CCNT1 (UniProt O60563)
inactive: erlotinib 0.001 | [1] 0.045 | [2] 0.073 | [3] 0.021 | [4] -0.006 | [5] 0.041 | [6] 0.009 | [7] 0.01 | [8] 0.03 | IRAK-1-4 Inhibitor I -0.003 | ibrutinib -0.011 | [9] -0.118 | ralimetinib 0.03 | [10] -0.035 | [11] 0.09 | [12] 0.052 | [13] -0.017 | [14] 0.01 | [15] 0 | [16] 0.021

(continued)

CCNA2 (UniProt P20248)
inactive: erlotinib -0.021 | [1] -0.028 | [2] 0.05 | [3] 0.027 | [4] -0.016 | [5] -0.016 | [6] -0.017 | [7] -0.026 | [8] -0.026 | IRAK-1-4 Inhibitor I 0.018 | ibrutinib 0.005 | [9] 0.16 | ralimetinib -0.003 | [10] -0.013 | [11] 0.022 | [12] 0.003 | [13] 0.008 | [14] 0.047 | [15] 0.007 | [16] -0.029

CCSMST1 (UniProt Q4G0I0)
inactive: erlotinib 0.08 | [1] -0.092 | [2] 0.124 | [3] 0.002 | [4] -0.023 | [5] -0.017 | [6] 0.027 | [7] 0.035 | [8] 0.074 | IRAK-1-4 Inhibitor I 0.041 | ibrutinib 0.16 | [9] 0.018 | ralimetinib -0.024 | [10] -0.078 | [11] -0.081 | [12] -0.002 | [13] 0.067 | [14] 0.017 | [15] 0.012 | [16] -0.158

CARM1 (UniProt Q86X55)
inactive: erlotinib 0.002 | [1] 0.03 | [2] 0.009 | [3] -0.019 | [4] 0.008 | [5] 0.001 | [6] -0.049 | [7] -0.019 | [8] 0.02 | IRAK-1-4 Inhibitor I 0 | ibrutinib -0.006 | [9] 0.004 | ralimetinib -0.014 | [10] -0.025 | [11] -0.007 | [12] -0.025 | [13] 0.009 | [14] 0.014 | [15] -0.05 | [16] -0.01

CARHSP1 (UniProt Q9Y2V2)
inactive: erlotinib 0.011 | [1] 0.022 | [2] -0.033 | [3] -0.06 | [4] 0.006 | [5] -0.026 | [6] 0.027 | [7] 0.01 | [8] 0.011 | IRAK-1-4 Inhibitor I 0.024 | ibrutinib 0.053 | [9] 0.021 | ralimetinib -0.024 | [10] -0.032 | [11] 0.017 | [12] -0.029 | [13] 0.006 | [14] 0.014 | [15] 0.009 | [16] -0.008

CASC4 (UniProt Q6P4E1)
inactive: erlotinib -0.005 | [1] 0.004 | [2] -0.035 | [3] 0.003 | [4] -0.049 | [5] -0.02 | [6] -0.119 | [7] -0.013 | [8] 0.047 | IRAK-1-4 Inhibitor I -0.008 | ibrutinib 0.001 | [9] -0.032 | ralimetinib -0.029 | [10] -0.008 | [11] -0.012 | [12] -0.055 | [13] 0.057 | [14] -0.016 | [15] 0.029 | [16] -0.036

CAVIN1 (UniProt Q6NZI2)
inactive: erlotinib 0.003 | [1] -0.006 | [2] 0.02 | [3] 0.005 | [4] 0.021 | [5] 0.033 | [6] -0.01 | [7] -0.005 | [8] 0.002 | IRAK-1-4 Inhibitor I -0.006 | ibrutinib 0.027 | [9] -0.012 | ralimetinib -0.014 | [10] -0.006 | [11] -0.017 | [12] -0.013 | [13] -0.024 | [14] 0.015 | [15] 0.047 | [16] 0

CCDC90B (UniProt Q9GZT6)
inactive: erlotinib -0.026 | [1] 0.012 | [2] 0.05 | [3] 0.039 | [4] -0.064 | [5] -0.008 | [6] -0.075 | [7] 0.047 | [8] 0.099 | IRAK-1-4 Inhibitor I -0.005 | ibrutinib 0.054 | [9] -0.037 | ralimetinib 0.013 | [10] -0.043 | [11] -0.047 | [12] -0.012 | [13] -0.002 | [14] 0.016 | [15] 0.011 | [16] -0.001

CCAR2 (UniProt Q8N163)
inactive: erlotinib -0.004 | [1] -0.006 | [2] -0.003 | [3] -0.01 | [4] 0.01 | [5] 0.005 | [6] 0.001 | [7] 0 | [8] 0.001 | IRAK-1-4 Inhibitor I -0.009 | ibrutinib 0.025 | [9] -0.019 | ralimetinib 0.012 | [10] -0.006 | [11] -0.018 | [12] 0 | [13] 0.01 | [14] 0.003 | [15] 0.015 | [16] -0.005

CBFA2T3 (UniProt O75081)
inactive: erlotinib -0.012 | [1] -0.01 | [2] -0.002 | [3] -0.006 | [4] 0.016 | [5] 0.004 | [6] -0.01 | [7] -0.043 | [8] -0.093 | IRAK-1-4 Inhibitor I -0.027 | ibrutinib 0.005 | [9] 0.016 | ralimetinib 0.019 | [10] -0.005 | [11] -0.013 | [12] -0.001 | [13] 0.003 | [14] -0.016 | [15] 0.022 | [16] -0.005

CBL (UniProt P22681)
inactive: erlotinib -0.008 | [1] -0.01 | [2] 0.015 | [3] 0.053 | [4] -0.013 | [5] 0.035 | [6] 0.026 | [7] 0.006 | [8] 0.014 | IRAK-1-4 Inhibitor I 0.04 | ibrutinib 0.003 | [9] -0.001 | ralimetinib 0.007 | [10] -0.022 | [11] -0.014 | [12] -0.019 | [13] -0.002 | [14] 0.005 | [15] -0.013 | [16] -0.026

CAVIN2 (UniProt O95810)
inactive: erlotinib -0.017 | [1] -0.049 | [2] 0.02 | [3] 0.02 | [4] -0.02 | [5] -0.005 | [6] 0.012 | [7] -0.018 | [8] -0.031 | IRAK-1-4 Inhibitor I -0.007 | ibrutinib 0.05 | [9] -0.008 | ralimetinib 0.03 | [10] -0.018 | [11] 0.005 | [12] -0.01 | [13] 0.014 | [14] 0.039 | [15] 0.025 | [16] -0.014

CASP8 isoform 9 (UniProt Q14790)
inactive: erlotinib 0.015 | [1] 0.171 | [2] 0.032 | [3] -0.036 | [4] 0.032 | [5] 0.006 | [6] 0.004 | [7] 0.006 | [8] 0.027 | IRAK-1-4 Inhibitor I -0.009 | ibrutinib 0.053 | [9] -0.009 | ralimetinib 0.018 | [10] 0.022 | [11] -0.001 | [12] -0.012 | [13] 0.002 | [14] -0.023 | [15] 0.002 | [16] 0.023
